Results are given in words; binding and its absence hold for the method and conditions named. In cells and extracts the contact can be indirect. Here binding means that the protein was enriched with, or labelled near, the bait; the list need not be complete.
B1: WDR18 (protein, UniProt Q4VBE8 1-431)
chain: MAAPMEVVVCTDAAAQLWSCVVWELHSGANLLTYRGGQAGPRGLALLNGEYLLAAQQGKNYICAWELQRKDQLQQKIMCPGPVTCLTTAPNGLYVLAGIAESIYLWEVCTGNLLVILSRHYQDVSCLKFTGDGSHFVSAGKDCLALAWSLCSVLQADPSRILAPRHVWSQHTLPITDLHCGFGGPMARVATASLDQTVKLWAISSGDLLLSVLFDMGITSVTMDLAEHHIFCGGSDGSIFQVDLCSWPGLREHSFQPEQNTGKVFKGHRNQVTCLSVSTDGSVLLSGSHDESVRLWDVKSKQCLRTVTLKGPVTNAAIILAPPSMLNPEFRPSLPLPHFNKHLLGAEHGDEAQGGGLRLQLGLHLQGKEPSYLERLEQLQAVLSSYLEKNMLGSQMLPARVFDLEDEVRSLRKINRDLFDFSTRIITRPSK
B2: WDR1 (protein, UniProt O88342 1-606)
chain: MPYEIKKVFASLPQVERGVSKILGGDPKGDHFLYTNGKCVILRNIDNPAIADIYTEHAHQVVVAKYAPSGFYIASGDISGKLRIWDTTQKEHLLKYEYQPFAGKIKDIAWTEDSKRIAVVGEGREKFGAVFLWDTGSSVGEITGHNKVINSVDIKQTRPYRLATGSDDNCAAFFEGPPFKFKFTIGDHSRFVNCVRFSPDGNRFATASADGQIFIYDGKTGEKVCALGESKAHDGGIYAISWSPDSTHLLSASGDKTSKIWDVNVNSVVSTFPMGSNVLDQQLGCLWQKDHLLSISLSGYINYLDKNNPSKPLRVIKGHSKSIQCLTVHRNGGKSYIYSGSHDGHINYWDSETGENDSFSGKGHTNQVSRMTVNESEQLVSCSMDDTVRYTNLTLRDYSGQGVVKLDVQPKCVAVGPGGYTVVVCIGQIVLLKDQKKCFSIDNPGYEPEVVAVHPGGDTVAVGGTDGNVRVYSILASTLKDEGKLLEAKGPVTDVAYSHDGAFLAVCDASKVVTVFSVADGYSENNVFYGHHAKIVCLAWSPDNEHFASGGMDMMVYVWTLSDPETKVKIQDAHRLHHVSSLAWLDEHTLVTTSHDASVKEWTITY
B3: WDR3 (protein, UniProt Q8BHB4 1-942)
chain: MGLTKQYLRYVASAVFGLIGSQKGNIVFVTLRGEKGRYVAVPACEHVFIWDLRKGEKILILQGNKQEVTCLCPSPDGLHLAVGYEDGAIRIFSLLSGEGNITFNGHKAAVTSLKYDQLGGRLASGSKDTDVIIWDVINESGLYRLKGHKDAVTQALFLRERNLLVTSGKDTMVKWWDLDNQHCFKTMVGHRTEVWGLVLVSEEKRLITGAADSELRAWDIDYLQEIDDPEEPEPKKIKECPGIQDTPESEDSTLEADDEKSEDRILSCSKAGSIMREGRDRVVNLAVDKTGRILACHGTDSVLEVFCILSKAEVQKKMDKKLKKARKKARLNSANEEEDPETSVSMTLQDEILRVAKIKTSAKIKSFDLIHSPQGELKAVFLLQNNLVELYSLNASLPAPQPVRTSRITIGGHRSDVRTLSFSSDNIAVLSAAADSIKIWNRSTLQCIRTMPCEYALCSFFVPGDRQVVIGTKTGNLQLYDLASGTLLETIAAHDGALWSMSLSPDQRGFVTGGADKAVKFWDFELVTDKNSTQKRLSVKQTRTLQLDEDVLCVSYSPNQKLLAVSLLDCTVKVFYVDTLKFFLSLYGHKLPVLCMDISHDGALIATGSADRNVKIWGLDFGDCHRSLFAHDDSVMYLRFVPKSHLFFTAGKDHKIKQWDADKFEHIQTLEGHHQEIWCLAVSPSGDYVVSASHDKSLRLWERTREPLILEEEREMQREAEYEESVAKEDQPAVPGETQGDNYFTGKKTIETVKAAERIMEAIELHREETAKMKEHRAICKAAGKEVPLPVNPILMAHGNISPSAYVLETFKGIRSSELEEALLVLPFSYVPDVLTLFNEFIQTGLDVELLCRCLFFLLRIHFGQITSNQMLVPVIEKLKETTISKVRQVQDAIGFNMAGLDYLKRECEAKSEVMFFAEATSHLEEKKKKRKNRKRMILTLT

The chains behind the UniProt entries cited, without tags or fusion partners.
UniProt A2A432: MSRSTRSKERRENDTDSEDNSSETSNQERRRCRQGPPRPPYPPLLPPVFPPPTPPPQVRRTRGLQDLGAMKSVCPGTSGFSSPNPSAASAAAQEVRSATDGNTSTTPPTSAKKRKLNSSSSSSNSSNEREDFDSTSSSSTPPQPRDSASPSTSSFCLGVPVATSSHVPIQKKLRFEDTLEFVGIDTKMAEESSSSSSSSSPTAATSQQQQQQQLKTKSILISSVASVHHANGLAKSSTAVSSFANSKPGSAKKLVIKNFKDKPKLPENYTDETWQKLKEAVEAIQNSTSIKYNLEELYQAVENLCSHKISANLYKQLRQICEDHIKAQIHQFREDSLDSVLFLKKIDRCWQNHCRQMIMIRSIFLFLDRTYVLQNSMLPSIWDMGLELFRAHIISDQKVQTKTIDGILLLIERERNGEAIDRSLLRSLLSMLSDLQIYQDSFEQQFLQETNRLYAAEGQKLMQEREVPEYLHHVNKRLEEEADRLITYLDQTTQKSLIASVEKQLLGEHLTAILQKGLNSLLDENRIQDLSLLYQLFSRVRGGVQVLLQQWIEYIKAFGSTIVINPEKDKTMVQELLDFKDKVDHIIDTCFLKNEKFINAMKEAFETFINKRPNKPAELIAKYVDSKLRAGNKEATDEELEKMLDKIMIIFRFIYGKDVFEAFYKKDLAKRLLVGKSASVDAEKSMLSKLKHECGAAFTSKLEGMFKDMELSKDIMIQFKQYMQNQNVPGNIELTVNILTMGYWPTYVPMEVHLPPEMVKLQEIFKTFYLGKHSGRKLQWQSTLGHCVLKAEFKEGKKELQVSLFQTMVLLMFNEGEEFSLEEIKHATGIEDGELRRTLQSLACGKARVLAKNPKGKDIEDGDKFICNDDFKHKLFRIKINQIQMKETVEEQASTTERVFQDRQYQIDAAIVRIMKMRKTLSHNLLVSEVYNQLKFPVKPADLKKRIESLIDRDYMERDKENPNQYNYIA

target: CUL4B (bait of the mass spectrometry of CUL4B-interacting proteins) (UniProt A2A432); assay: affinity purification with mass spectrometry; CUL4B-interacting proteins identified by mass spectrometry; source and procedure not told

binding | Binder
binds | B1
binds | B2
binds | B3
